Results taken from publication PMC4811503, “A method for quantification of exportin-1 (XPO1) occupancy by Selective Inhibitor of Nuclear Export (SINE) compounds” (Oncotarget, 2015).

Test system: nuclear export of the XPO1 cargo protein Rev-GFP in stably transfected U2OS cells
Assay: Rev-GFP assay (nuclear retention of Rev-GFP)
Assay type: cell-based
Conditions: ratio of Rev-GFP IC50 values
Text: For this assay we utilized biotinylated LMB (b-LMB) as a tool compound to quantify the amount of XPO1 bound by SINE compounds (Figure 1). b-LMB was synthesized by coupling a biotin tag to LMB. We compared the inhibition of nuclear export and the cytotoxicity of b-LMB to that of the unmodified LMB. […] We then quantified the effects of these compounds on cell death in several cancer cell lines using an MTT cytotoxicity assay (Table 2).
For the typical Rev-GFP assay, U2OS cells stably expressing Rev-GFP [42] were cultured in 96 well plates at 7,500 - 15,000 cells/well. […] After fixation cells were stained with DAPI (Invitrogen) for 10 minutes at room temperature. Cells were imaged with a Nikon fluorescent microscope at 10X magnification and intensity of the GFP and nuclear area were measured and recorded. Cells were scored as either GFP nuclear positive or negative. Number of positive cells were divided by total number of cells in order to calculate percentage of cells with nuclear GFP per well.

Row | Compound | fold less potent in Rev-GFP compared to unmodified counterpart [fold]
1 | NC(=O)/C(=C/n1cnc(-c2cc(OC(=O)CCCC[C@@H]3SC[C@@H]4NC(=O)N[C@@H]43)cc(C(F)(F)F)c2)n1)c1cncnc1 [KPT-9511] | ~5
2 | O=C1N[C@H]2[C@H](CS[C@H]2CCCCC(=O)Oc2cc(-c3ncn(/C=C\C(=O)N4CC(F)(F)C4)n3)cc(C(F)(F)F)c2)N1 [KPT-9058] | ~18
